In US20250249098A1, “CRYOPRESERVATION OF NK CELL PRODUCTS FOR OFF-THE-SHELF IMMUNOTHERAPY” (BOARD OF REGENTS, THE UNIVERSITY OF TEXAS SYSTEM, priority 2022, published 2025):
Entries after “also recorded” stand apart in the source; their conditions may differ. At least one structure is not confirmed: it was looked up by name or label, or the drawing left a doubt.

Legend:
CAR-NK cells [1] = test: Post-thaw viability of CAR-NK cells by flow cytometry (Annexin V / cell death marker); assay type: cell-based, human; details: 24, 48 or 72 h treatment
Description: (§1) CAR-NK cells were isolated, pre-activated, expanded, and treated with Dasatinib for 24, 48, or 72 hours prior to cryopreservation as described in Example 1 (or not treated with Dasatinib as control). Immediately prior to cryopreservation, CAR-NK cells were washed to remove the deactivating agent.

CAR-NK cells [2] = test: Post-thaw CAR expression of CAR-NK cells by flow cytometry; assay type: cell-based, human; details: 24 or 48 h treatment
Description: as §1

NK cells = test: NK cell death after cryopreservation and thawing (Cytotox green dye); assay type: cell-based, human; details: 48 or 72 h treatment prior to cryopreservation vs not deactivated
Raji tumor cells [3] = test: Raji cell death in co-culture with thawed NK cells (Cytotox green dye, E:T 1:1); assay type: cell-based, human; details: 48 or 72 h treatment of NK cells prior to cryopreservation, vs not deactivated
Karpas-299 cell line = test: Karpas cell death in co-culture with thawed NK cells (Cytotox green dye, E:T 1:1); assay type: cell-based, human; details: 48 or 72 h treatment of NK cells prior to cryopreservation, vs not deactivated
Raji tumor cells [4] = test: Raji-NSG mouse model treated with thawed NK cells; assay type: in vivo, mice; details: NK cells treated 24, 48 or 72 h pre-cryopreservation; approx. 1×10^7 thawed NK cells; vs untreated NK cells or no NK cells
MM1S cells = test: MM1S multiple myeloma NSG mouse model treated with CD70-targeting CAR NK cells; assay type: in vivo, mice
SKOV3 cells = test: SKOV3 ovarian cancer mouse model treated with TROP2-targeting CAR NK cells; assay type: in vivo, mice; details: TROP2-targeting CAR NK cells cultured 13 days, treated 24 h before freezing
PATC148 cells = test: PATC148 pancreatic ductal adenocarcinoma mouse model treated with TROP2-targeting CAR NK cells; assay type: in vivo, mice; details: iC9/TROP2CAR/IL15 CAR NK cells treated prior to freezing
GSC272 spheroids = test: Glioblastoma tumor spheroid assay with thawed NK cells; assay type: cell-based; details: NK cells treated prior to freezing; E:T 1:1, 2:1, 3:1 or 5:1
GSC20 spheroids = test: as above; assay type: cell-based; details: NK cells treated prior to freezing
[5] = CAR NK cells cultured 13 days, treated 24 h before freezing
[6] = CAR NK cells cultured 13 days, treated 24 h before freezing, blood
[7] = CAR NK cells cultured 14 days, treated 24 or 72 h before freezing

Cc1nc(Nc2ncc(C(=O)Nc3c(C)cccc3Cl)s2)cc(N2CCN(CCO)CC2)n1 [Dasatinib]
viability relative to NK cells not treated prior to cryopreservation (CAR-NK cells [1]): comparable and/or improved viability | CAR expression levels relative to NK cells not treated prior to cryopreservation (CAR-NK cells [2]): comparable and/or improved chimeric antigen receptor (CAR) expression levels | NK cell death (green total integrated intensity) post thaw (NK cells): enhanced NK cell viability post-thaw | Raji tumor cell death (green total integrated intensity) (Raji tumor cells [3]): enhanced their anti-tumor potential; also recorded: enhanced their anti-cancer cell potential; also recorded: enhanced the NK cell's anti-tumor cytotoxicity upon thawing; also recorded: enhanced their anti-tumor cytotoxicity upon thawing | Karpas cell death (green total integrated intensity / NIR object area) (Karpas-299 cell line): enhanced their anti-cancer cell potential; also recorded: enhanced their anti-tumor cytotoxicity upon thawing | tumor growth (average radiance) (Raji tumor cells [4]): improved inhibition of tumor growth | in vivo anti-tumor control (BLI average radiance) vs fresh CAR NK cells (MM1S cells; [5]): anti-tumor control in vivo that was similar to that of fresh CAR NK cells; also recorded: comparable in vivo antitumor control and engraftment capacities; also recorded: in vivo anti-tumor control comparable to that of fresh (day 13 of culture) CAR NK cells | in vivo anti-tumor control (BLI average radiance) vs frozen CAR NK cells without deactivation (MM1S cells; [5]): superior to CAR NK cells stored with standard freezing media (CS10) protocols without deactivation; also recorded: controlled tumor growth and engrafted better | in vivo NK cell engraftment vs NK cells not deactivated before cryopreservation (MM1S cells; [6]): engrafted more effectively than NK cells that were not deactivated before cryopreservation; also recorded: engrafted better than NK cells that were not deactivated prior to cryopreservation | in vivo NK cell engraftment vs fresh CAR NK cells (MM1S cells; [6]): comparable in vivo antitumor control and engraftment capacities; also recorded: in vivo engraftment levels that were comparable to those of freshly prepared (day 13 of culture) CAR NK cells; also recorded: comparable levels to those of fresh NK cells | in vivo anti-tumor activity (BLI average radiance) vs fresh CAR NK cells (MM1S cells; [7]): comparable to that of fresh CAR NK cells | in vivo anti-tumor activity (BLI average radiance) vs frozen CAR NK cells without deactivation (MM1S cells; [7]): improved NK cell anti-tumor cytotoxicity; also recorded: superior in terms of in vivo tumor control; also recorded: superior to CAR NK cells stored with standard freezing media protocols without deactivation | in vivo NK cell engraftment (MM1S cells; CAR NK cells treated at day 14 for 24 or 72 h pre-cryopreservation, day 10 after infusion): improved NK cell anti-tumor cytotoxicity and NK cell engraftment | in vivo antitumor cytotoxicity (BLI average radiance) vs fresh NK cells (SKOV3 cells): antitumor cytotoxicity that was comparable to fresh NK cells; also recorded: comparable antitumor cytotoxicity relative to fresh NK cells | in vivo antitumor cytotoxicity (BLI average radiance) vs fresh NK cells (PATC148 cells): antitumor cytotoxicity that was comparable to fresh NK cells | total integrated red intensity (measure of tumor growth) (GSC272 spheroids): significant decrease in the total integrated red intensity | total integrated red intensity (measure of tumor growth) (GSC20 spheroids): significant decrease in the total integrated red intensity
